Here are results for 35 compounds from the supplement of paper PMC4683952.

Structures can show the parent of a compound that is named as a salt. The list shows a part of the results. Rule as the data show it: active = 2.5 or more and inactive = the rest. Single values are uncertain here, since repeats match poorly.

In this experiment the test system is Lgr5 (MarsCy1-Lgr5-EGFP, U2OS). Briefly: cell-surface Lgr5 expression (SCi1 fluorescence, background-subtracted) relative to WT control (fold of WT control); higher = more Lgr5 at the plasma membrane. As to conditions: U2OS MarsCy1-Lgr5-EGFP stable; treatment time: overnight; library: Prestwick; 20 µM.
Turning to `c1ccc2c(c1)OCC(C1=NCCN1)O2` (stereo not given) [Idazoxan hydrochloride], the “cell-surface Lgr5 expression” value is inactive: 1.86.
Consider `C=C1C/C(=C/C)C(=O)O[C@@H]2CCN3CC=C(COC(=O)[C@]1(C)O)[C@H]23` [Seneciphylline], for which the “cell-surface Lgr5 expression” value was inactive: 1.87.
For the compound `COc1cc2c(c(OC)c1OC)-c1ccc(OC)c(=O)cc1[C@@H](NC(C)=O)CC2` [Colchicine], the “cell-surface Lgr5 expression” value is inactive: 2.02.
The value for `C[C@H]1O[C@@H](O[C@H]2CC[C@]3(C=O)[C@H]4CC[C@]5(C)[C@@H](C6=CC(=O)OC6)CC[C@]5(O)[C@@H]4CC[C@]3(O)C2)C[C@H](O)[C@@H]1O` [Helveticoside] was inactive: 1.01.
Under `COc1ccc2c(c1OC)CN1CCc3cc4c(cc3C1C2)OCO4` (stereo not given) [(d,l)-Tetrahydroberberine] stands inactive: 1.77; under `CN1CCc2cc3c(cc2[C@H]1[C@@H]1OC(=O)c2c1ccc1c2OCO1)OCO3` [Bicuculline (+)], active: 3.88.
The value for `Oc1ccc2c3c1O[C@H]1[C@@H](O)CC[C@@]4(O)[C@@H](C2)N(CC2CCC2)CC[C@]314` [Nalbuphine hydrochloride] was inactive: 1.07; that for `COC1=CC(=O)O[C@@H](/C=C/c2ccccc2)C1` [Kawain] was inactive: 1.22.
Turning to `CN1C[C@H](CNC(=O)OCc2ccccc2)C[C@@H]2c3cccc4c3c(cn4C)C[C@H]21` [Metergoline], the “cell-surface Lgr5 expression” value was inactive: 1.26.
The value for `CC(=O)O[C@H]1CC[C@@]2(C)C(=CC[C@@H]3[C@@H]2CC[C@]2(C)C(=O)CC[C@@H]32)C1` [Dehydroisoandosterone 3-acetate] was active: 3.19; that for `O=C(NCNC(=O)NC1C(=O)NC(=O)N1CO)NC1C(=O)NC(=O)N1CO` (stereo not given) [Imidurea] was inactive: 2.08.
As for `CCCN1CCC[C@@H]2Cc3n[nH]cc3C[C@H]21` [(-)-Quinpirole hydrochloride], the “cell-surface Lgr5 expression” value is inactive: 1.3.
With `C[C@]12CC[C@H](O)C[C@H]1CC[C@@H]1[C@@H]2CC[C@]2(C)[C@@H](C3=CC(=O)OC3)CC[C@]12O` [Digitoxigenin], the “cell-surface Lgr5 expression” value was inactive: 0.472.
As to `CC(C)c1cccc(C(C)C)c1O` [Propofol], the “cell-surface Lgr5 expression” value is inactive: 1.99.
Consider `CCOC(=O)c1cncn1[C@H](C)c1ccccc1` [Etomidate], for which the “cell-surface Lgr5 expression” value was inactive: 1.
Under `CCN1C[C@]2(COC)CC[C@H](O)[C@]34C1[C@@](O)([C@@H](OC)[C@H]23)[C@@]1(O)C[C@H](OC)[C@H]2C[C@@H]4[C@@H]1[C@H]2OC` [Delsoline] stands inactive: 1.94; under `O=[N+]([O-])O[C@H]1CO[C@H]2[C@@H]1OC[C@H]2O[N+](=O)[O-]` [Isosorbide dinitrate], inactive: 1.9; under `CCN1C[C@]2(COC)CC[C@H](OC)[C@]34C5C[C@@H]6[C@@H](OC)C[C@@]7(OCO[C@@]7(C13)[C@@H](O)C24)C5[C@H]6OC` (stereo not given in full) [Delcorine], active: 3.47.
For the compound `CC(N)C(O)c1ccccc1` (stereo not given) [Phenylpropanolamine hydrochloride], the “cell-surface Lgr5 expression” value is inactive: 1.94.
The value for `O=C(CCCN1CCC2(CC1)C(=O)NCN2c1ccccc1)c1ccc(F)cc1` [Spiperone] was inactive: 1.19; that for `CC(C)C[C@H]1C(=O)N2CCC[C@H]2[C@]2(O)O[C@](NC(=O)[C@@H]3C=C4c5cccc6[nH]cc(c56)C[C@H]4N(C)C3)(C(C)C)C(=O)N12` [Ergocryptine-alpha] was inactive: 1.63.
The value for `O=c1cccc2n1C[C@@H]1CNC[C@H]2C1` [Cytisine (-)] was inactive: 2.26; that for `NCC1(CC(=O)O)CCCCC1` [Gabapentin] was inactive: 2.09.
`CC[C@@H](C)C(=O)O[C@H]1[C@H](O)[C@H]2[C@@H](CN3C[C@@H](C)CC[C@H]3[C@@]2(C)O)[C@@H]2C[C@]34O[C@]5(O)[C@@H](OC(=O)[C@@](C)(O)CC)CC[C@@]3(C)[C@@H]5[C@@H](OC(C)=O)[C@@H](OC(C)=O)[C@H]4[C@@]21O` [Protoveratrine A]: the “cell-surface Lgr5 expression” value is inactive: 1.64.
Regarding `O=c1[nH]oc2c1CCNC2` [THIP Hydrochloride], the “cell-surface Lgr5 expression” value is inactive: 0.718.
Under `c1cncc([C@@H]2CCCCN2)c1` [Anabasine] stands inactive: 1.8; under `C[C@@H]1C[C@@H]([C@H](O)CC2CC(=O)NC(=O)C2)C(=O)[C@@H](C)C1` [Cycloheximide], inactive: 0.435; under `COc1ccc2c(c1OC)C(=O)O[C@@H]2[C@H]1c2cc3c(cc2CCN1C)OCO3` [Hydrastine hydrochloride], active: 2.97.
On to `CC[C@@H](CO)NC(=O)[C@@H]1C=C2c3cccc4[nH]cc(c34)C[C@H]2N(C)C1` [Methylergometrine maleate], for which the “cell-surface Lgr5 expression” value is inactive: 1.42.
The value for `CN1CCC2(C)c3cc(O)ccc3N(C)C12` (single isomer, unassigned; (-)) [(-)-Eseroline fumarate salt] was inactive: 1.03.
The value for `CCN1C[C@]2(C)CC[C@H](O)[C@]34C1[C@@H](C[C@H]23)[C@@]1(O)C[C@H](OC)[C@H]2C[C@@H]4[C@@H]1[C@H]2O` [Karakoline] was inactive: 1.91.
Under `CC(NC(C)(C)C)C(=O)c1cccc(Cl)c1` (stereo not given) [Bupropion hydrochloride] stands inactive: 1.41.
With `CN[C@@H]1[C@@H](O)[C@@H](O[C@@H]2[C@@H](O)[C@H](O[C@H]3O[C@H](CN)CC[C@H]3N)[C@@H](N)C[C@H]2N)OC[C@]1(C)O.CN[C@@H]1[C@@H](O)[C@@H](O[C@@H]2[C@@H](O)[C@H](O[C@H]3O[C@H]([C@@H](C)N)CC[C@H]3N)[C@@H](N)C[C@H]2N)OC[C@]1(C)O.CN[C@@H]1[C@@H](O)[C@@H](O[C@@H]2[C@@H](O)[C@H](O[C@H]3O[C@H]([C@@H](C)NC)CC[C@H]3N)[C@@H](N)C[C@H]2N)OC[C@]1(C)O` [Gentamicine sulfate], the “cell-surface Lgr5 expression” value is inactive: 1.13.
The value for `COc1ccc2c(c1O)-c1c(OC)c(OC)cc3c1[C@H](C2)N(C)CC3` [Isocorydine (+)] was inactive: 1.3; that for `O=C1CC[C@@]2(O)[C@H]3Cc4ccc(O)c5c4[C@@]2(CCN3CC2CC2)[C@H]1O5` [Naltrexone hydrochloride dihydrate] was inactive: 1.62.
